What all share (test): co-IP
Test [1] deals with T1, PL1-GFP (35Spro:gPL1-GFP/Col-0, line #1.6) (Arabidopsis thaliana).
T1 sequence: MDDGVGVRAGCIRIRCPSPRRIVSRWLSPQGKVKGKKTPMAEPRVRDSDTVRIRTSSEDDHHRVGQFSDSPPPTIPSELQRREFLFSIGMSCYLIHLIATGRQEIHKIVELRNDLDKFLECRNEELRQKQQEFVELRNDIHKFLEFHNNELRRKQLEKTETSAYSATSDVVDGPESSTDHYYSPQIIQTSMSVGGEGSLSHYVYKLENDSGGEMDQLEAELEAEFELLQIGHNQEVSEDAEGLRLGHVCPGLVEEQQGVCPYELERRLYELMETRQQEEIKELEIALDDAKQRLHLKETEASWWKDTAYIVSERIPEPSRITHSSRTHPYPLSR

By UniProt entry, the sequences of proteins in these tests, tags left out.
UniProt Q9LN63: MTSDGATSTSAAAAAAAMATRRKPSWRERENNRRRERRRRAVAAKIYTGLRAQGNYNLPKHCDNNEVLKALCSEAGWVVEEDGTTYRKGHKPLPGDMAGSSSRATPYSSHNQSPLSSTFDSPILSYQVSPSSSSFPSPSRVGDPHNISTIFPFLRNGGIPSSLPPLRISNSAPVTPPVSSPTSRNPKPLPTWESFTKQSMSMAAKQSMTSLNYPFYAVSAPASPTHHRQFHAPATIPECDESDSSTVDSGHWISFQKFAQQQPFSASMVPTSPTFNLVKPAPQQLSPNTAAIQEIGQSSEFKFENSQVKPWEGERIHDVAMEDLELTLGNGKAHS

In test [2] the target is T2, POLAR-GFP (35Spro:gPOLAR-GFP/Col-0, line #3.1) (Arabidopsis thaliana) (UniProt Q6NQ99).
T2 sequence: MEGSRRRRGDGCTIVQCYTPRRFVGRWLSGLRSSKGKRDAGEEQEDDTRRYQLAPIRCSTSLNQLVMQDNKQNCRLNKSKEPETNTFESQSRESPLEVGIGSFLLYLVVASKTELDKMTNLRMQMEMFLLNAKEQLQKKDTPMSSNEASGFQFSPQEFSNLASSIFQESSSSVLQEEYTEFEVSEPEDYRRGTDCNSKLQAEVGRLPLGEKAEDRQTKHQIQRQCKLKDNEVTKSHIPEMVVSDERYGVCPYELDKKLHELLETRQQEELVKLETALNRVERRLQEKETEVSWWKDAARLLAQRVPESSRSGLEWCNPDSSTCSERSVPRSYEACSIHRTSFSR

Test [3] has as its target T3, PL1-GFP (35Spro:PL1-GFP), POLAR-LIKE1 (Arabidopsis thaliana).
T3 sequence: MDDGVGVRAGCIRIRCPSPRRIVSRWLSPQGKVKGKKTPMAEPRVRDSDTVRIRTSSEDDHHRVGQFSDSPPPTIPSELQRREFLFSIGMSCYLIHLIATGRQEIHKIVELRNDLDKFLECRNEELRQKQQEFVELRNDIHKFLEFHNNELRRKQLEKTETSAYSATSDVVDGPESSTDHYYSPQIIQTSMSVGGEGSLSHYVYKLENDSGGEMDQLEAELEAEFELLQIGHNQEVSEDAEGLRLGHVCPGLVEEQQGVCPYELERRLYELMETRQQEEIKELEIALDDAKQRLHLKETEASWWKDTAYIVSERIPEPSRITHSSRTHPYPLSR

These are yes or no findings as the source states them, for the method shown. In cells and extracts the contact can be indirect. Some results given as binding are weak or reduced against the parent protein; the word gives no strength. Tags and fused reporters may be left off the sequences shown.

On to “BRI1-EMS-SUPPRESSOR1 (BES1)/BZR2 (from UniProt Q9LN63 1-335)”, for which the binding entry in test [1] and in test [2] was “binds” each time.

B1: POLAR-mCherry (35Spro:POLAR-mCherry), POLAR LOCALIZATION DURING … DIVISION AND REDISTRIBUTION (protein, UniProt Q6NQ99 1-344)
chain: MEGSRRRRGDGCTIVQCYTPRRFVGRWLSGLRSSKGKRDAGEEQEDDTRRYQLAPIRCSTSLNQLVMQDNKQNCRLNKSKEPETNTFESQSRESPLEVGIGSFLLYLVVASKTELDKMTNLRMQMEMFLLNAKEQLQKKDTPMSSNEASGFQFSPQEFSNLASSIFQESSSSVLQEEYTEFEVSEPEDYRRGTDCNSKLQAEVGRLPLGEKAEDRQTKHQIQRQCKLKDNEVTKSHIPEMVVSDERYGVCPYELDKKLHELLETRQQEELVKLETALNRVERRLQEKETEVSWWKDAARLLAQRVPESSRSGLEWCNPDSSTCSERSVPRSYEACSIHRTSFSR
Consider B1, for which, in test [3], the binding entry is given as “binds”.

B2: mCherry-BASL (35Spro:mCherry-BASL), BREAKING OF … IN THE STOMATAL LINEAGE (protein, UniProt Q5BPF3 1-262)
chain: MASQWTIPKLVTWRVRDWASCFLACKIPLDGDEDGANNNGNTTNNNNLTFKRIKRKIKSTKKKRSERKLSLSPPGTRHHHLHLRSSSVSPTTSGSQHRRLSWPQPPVSEESGFIVFCFDREDGGFDVVKEGKQEKKETESSSEKSPRTVNRKLIYGDQGVGGTEKNNSPETKGTEQDQNDNTSCQGTKDVSSDVTERTKEEEDIDASDKSSGSSHSDEGRGSFAFPILGVEWMGSPAKMPESDDLSPKKQKPVALGFQCCRF
For the molecule B2, in test [3], the binding entry is “binds”.
